From paper PMC7819943, “Rice protein-binding microarrays: a tool to detect cis-acting elements near promoter regions in rice”
The list shows a part of the results.

The chains behind the UniProt entries cited, without tags or fusion partners.
UniProt Q0JBA9, entry or part of it: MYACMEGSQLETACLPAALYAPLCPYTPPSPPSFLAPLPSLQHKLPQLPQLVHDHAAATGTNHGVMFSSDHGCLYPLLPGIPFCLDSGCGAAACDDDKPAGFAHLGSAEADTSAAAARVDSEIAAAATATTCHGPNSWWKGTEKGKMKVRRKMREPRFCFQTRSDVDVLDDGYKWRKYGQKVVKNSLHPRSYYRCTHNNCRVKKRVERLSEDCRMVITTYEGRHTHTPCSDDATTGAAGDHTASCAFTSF

Biological target: OsWRKY34 (Oryza sativa, UniProt Q0JBA9 1-250)
Assay: protein-binding microarray (RPBM); PBS, 2% BSA, 51.3 ng/ul salmon testes DNA, 50 uM zinc acetate, 200 nM TF, 25 C, 1 h; high values mean tight binding
Conditions: protein: recombinant; tags: N-terminal polyhistidine and DsRed monomer fusion (pET32a); label: CyDye5-dUTP incorporated in the synthesized complementary strand; 3' TTTTT single-stranded linker to array surface; dsDNA, one strand shown
Procedure, shortened: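 Polyhistidine-tagged DsRed fusions of transcription factors, joined at the N-terminus, were expressed in E. coli BL21-CodonPlus and isolated on Ni–NTA. They were incubated at 200 nM for 1 h at 25 °C on a custom Agilent array, double-stranded and BSA-blocked, in PBS with 2% BSA, salmon testes DNA and 50 µM zinc acetate. The binding signal is per-feature fluorescence intensity (arbitrary units) read on an Axon 4000B scanner after washing.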

Sequence | binding signal
CTTCTGCTTTGGGAGGATGCTTTGTCTATCGTTTCCTAACCGGAGTCACCTAGTGCAG | 9240 fluorescence intensity (a.u.)
GGGAGTGGGCCGGCCCAGCTGAGAGGAGGGCGGGCGCGCGCGGAGTCACCTAGTGCAG | 9320 fluorescence intensity (a.u.)
TCCCGTGTTCTTGTTCTTCTCTGGTGATCATCATCATCATCGGAGTCACCTAGTGCAG | 8410 fluorescence intensity (a.u.)
CACACTAAAGTGCTTTTTTTTTTTTGGTTCTCGTTCATTTCGGAGTCACCTAGTGCAG | 8250 fluorescence intensity (a.u.)
ATGGTATAACCACTGTCCGTCCGAATCCGCTCCGTTTTCACGGAGTCACCTAGTGCAG | 10200 fluorescence intensity (a.u.)
TATCCTCTTCATTTTGAATTATTTGCCGTTTAATTTTATTCGGAGTCACCTAGTGCAG | 8210 fluorescence intensity (a.u.)
CCGAGCCACCCACCCGCCACCGCCGCCGCCGCCGCCGCTCCGGAGTCACCTAGTGCAG | 12100 fluorescence intensity (a.u.)
TTAATTATATGCTAATGGCTAACCTTATTTTACGTATCTTCGGAGTCACCTAGTGCAG | 8180 fluorescence intensity (a.u.)
TATTTCTCGTTATAGTTTCTCGATCCATCGATGCAGGAACCGGAGTCACCTAGTGCAG | 8440 fluorescence intensity (a.u.)
GCTATGAGATTTATATATTTTTTTGTCCTGGGCTTCTTTTCGGAGTCACCTAGTGCAG | 9510 fluorescence intensity (a.u.)
GTTACCGCCACTTCCGTCGGTATTACTCTGCCACGACCCGCGGAGTCACCTAGTGCAG | 8610 fluorescence intensity (a.u.)
GACCTCGCCTGCCGCCATCGTCGCTGACATCATCACCATCCGGAGTCACCTAGTGCAG | 10400 fluorescence intensity (a.u.)
ACTTGCAGTGTTTAACCATTCGTCTTATTCAAAAATTTTTCGGAGTCACCTAGTGCAG | 8340 fluorescence intensity (a.u.)
CATAAAGCCTATAAACCGGCTCAGTGACCGGTTCTTTTTTCGGAGTCACCTAGTGCAG | 8920 fluorescence intensity (a.u.)
TATCTCCTGTCTTTTACTTGCATGTTTTCAGGGCTCGGTTCGGAGTCACCTAGTGCAG | 11900 fluorescence intensity (a.u.)
AATTGGTTCTCGTAGTTTCTCGTTCTCAATCAATCATTCCCGGAGTCACCTAGTGCAG | 10200 fluorescence intensity (a.u.)
AGCACGATTCACCTCCAATTATTTTTTTTTGTCAGAGGCCCGGAGTCACCTAGTGCAG | 8300 fluorescence intensity (a.u.)
ACTCTTTTACCACTCATCCGATCACCAATTCACCACTACCCGGAGTCACCTAGTGCAG | 9200 fluorescence intensity (a.u.)
GAAATGTCTGTACAATGAGGAATATTGGGTTATGCTAGCTCGGAGTCACCTAGTGCAG | 8400 fluorescence intensity (a.u.)
AATTTCGTGTGTTGGTCCTCAGCATACTACTACAGAACACCGGAGTCACCTAGTGCAG | 8320 fluorescence intensity (a.u.)
CATCGGTTTCTGACTTTCACCAGCTTCAACGTTGGCATCACGGAGTCACCTAGTGCAG | 11400 fluorescence intensity (a.u.)

Individual results from the entries so far.
In binding signal, GCTATGAGATTTATATATTTTTTTGTCCTGGGCTTCTTTTCGGAGTCACCTAGTGCAG is entered as 9510 fluorescence intensity (a.u.)
In binding signal, ACTTGCAGTGTTTAACCATTCGTCTTATTCAAAAATTTTTCGGAGTCACCTAGTGCAG is entered as 8340 fluorescence intensity (a.u.)

Later entries

Sequence | binding signal
ACCCCTACCATTTGCCCCTATTGCTTTGAGCATGTGTTGACGGAGTCACCTAGTGCAG | 9550 fluorescence intensity (a.u.)
CTGCAAACAATCATGTACTCCAGCCAACATCATTTCCAGACGGAGTCACCTAGTGCAG | 8400 fluorescence intensity (a.u.)
GGGGAGGCGGAAGGCGGTGCGGGGAGGCGGCGCTCGCTGACGGAGTCACCTAGTGCAG | 8620 fluorescence intensity (a.u.)
GCTCACTCTGTCGTTCTCTCTCTCCCATCCGGCGCGACGCCGGAGTCACCTAGTGCAG | 11800 fluorescence intensity (a.u.)
TTACGCATCACTTGGTATCTGAATCTCTTTTGCAGCAGTTCGGAGTCACCTAGTGCAG | 10000 fluorescence intensity (a.u.)
CACTTGGCTTGATCGATCCTATATATATACCAGCAACCATCGGAGTCACCTAGTGCAG | 10400 fluorescence intensity (a.u.)
GTCTTCTTCTCCAACATCACATAATGGTTTGTTATCTTCTCGGAGTCACCTAGTGCAG | 8340 fluorescence intensity (a.u.)
CATCGAGTAGCCGCCGCCGCCACCTGGTGCTCGTGACGCCCGGAGTCACCTAGTGCAG | 8670 fluorescence intensity (a.u.)
GGTTTGTTTGTCAACCTCGGGGTGGTTGGGTACTTGGGTTCGGAGTCACCTAGTGCAG | 11000 fluorescence intensity (a.u.)
CCAATTCAGGCTCCATGCTCTTATCCACAAACTGTCTATACGGAGTCACCTAGTGCAG | 9100 fluorescence intensity (a.u.)
CTTCGTTCCCGCGCGGCCACTCCTTCCACCACCACCTCCTCGGAGTCACCTAGTGCAG | 9660 fluorescence intensity (a.u.)
ACAGCCTATATACCTTTTTTATGTTCTCACATCCTGCTGGCGGAGTCACCTAGTGCAG | 8070 fluorescence intensity (a.u.)
ACCCGTTCTCACACTTGTCAATTTGTCATTCCAAATATGCCGGAGTCACCTAGTGCAG | 9300 fluorescence intensity (a.u.)
TTTAACTATTTGCCACTTTTGTCTACGTGATGTGTCCGCGCGGAGTCACCTAGTGCAG | 9440 fluorescence intensity (a.u.)
CCTCACATGATCCCCATTATTGTCATTTGCTTGTTTTCTTCGGAGTCACCTAGTGCAG | 11900 fluorescence intensity (a.u.)
TTCTTAATTATCTGTAGATCCTCTTCCTTATCTCTTGTACCGGAGTCACCTAGTGCAG | 8050 fluorescence intensity (a.u.)
TTTGATGAGTTGACTTCGTTGACCCAACAGTGATGGCCGACGGAGTCACCTAGTGCAG | 11200 fluorescence intensity (a.u.)
TTTTTTTTTCTCTCTCGTTTTCCCTCGGGCTACGCCTCTTCGGAGTCACCTAGTGCAG | 8120 fluorescence intensity (a.u.)
TAGCATTTCTACTTTTGATTCTATTTGTTTGTGTTGTTATCGGAGTCACCTAGTGCAG | 11900 fluorescence intensity (a.u.)
AATTTCTCGGTCTAACCAAATGCCCACCCGTACTACTACACGGAGTCACCTAGTGCAG | 8410 fluorescence intensity (a.u.)
AAACCCACTAATTATTGTCCTTCATTTGGCCCTTCATATACGGAGTCACCTAGTGCAG | 8560 fluorescence intensity (a.u.)
